Measured values from article PMC5042776 (Molecular Medicine Reports, 2016).
Converted amounts (≈) assume the structure as drawn.

Columns and labels:
[1] = tested on: A/shenzhen/203/2001 (H3N2 subtype); test: microbe, parasite or virus in culture; type: cell-based; settings: Influenza A virus, H3N2, MDCK, 72 h, read-out: IC50 (H3N2)
Cytotoxicity assay = type: cell-based, canine; settings: dog, MDCK cells

Work on `C=C1CCC[C@]2(C)C=C3OC(=O)C(C)=C3C[C@@H]12` [Atractylenolide I, atractylenolide I] yielded an IC50 [1] of 35.1 µg/mL (≈ 152 µM) and a CC50 at 3 days (Cytotoxicity assay) of 204 µg/mL (≈ 884 µM).
